These are yes or no findings as the source states them, for the method shown. In cells and extracts the contact can be indirect. Some results given as binding are weak or reduced against the parent protein; the word gives no strength.
Legend:
MycGFP-CENP-E (human) [1] = target: MycGFP-CENP-E (human) (UniProt Q02224); test: co-IP; C-Myc antibody 24 h at 4 °C, then Protein A/G agarose 2 h at 4 °C, with lysates of HEK 293T cells expressing MycGFP-CENP-E; blot for BubR1; control cells and CKAP5-depleted cells expressing CKAP5^853-2032-GFP
MycGFP-CENP-E (human) [2] = target: MycGFP-CENP-E (human) (UniProt Q02224); test: co-IP; GFP Trap agarose (GFP nanobody-coated beads), 4 h at 4 °C, with lysates of mitotic synchronized HEK 293T cells expressing MycGFP-CENP-E; lysis buffer 20 mM Tris, 50 mM NaCl, 1 mM EGTA, 1% Triton X 100; blot for BubR1; cells with control or CKAP5 depletion, with or without 0.25 µM okadaic …

Chains of the proteins cited; added tags and fusions are not shown.
UniProt Q02224: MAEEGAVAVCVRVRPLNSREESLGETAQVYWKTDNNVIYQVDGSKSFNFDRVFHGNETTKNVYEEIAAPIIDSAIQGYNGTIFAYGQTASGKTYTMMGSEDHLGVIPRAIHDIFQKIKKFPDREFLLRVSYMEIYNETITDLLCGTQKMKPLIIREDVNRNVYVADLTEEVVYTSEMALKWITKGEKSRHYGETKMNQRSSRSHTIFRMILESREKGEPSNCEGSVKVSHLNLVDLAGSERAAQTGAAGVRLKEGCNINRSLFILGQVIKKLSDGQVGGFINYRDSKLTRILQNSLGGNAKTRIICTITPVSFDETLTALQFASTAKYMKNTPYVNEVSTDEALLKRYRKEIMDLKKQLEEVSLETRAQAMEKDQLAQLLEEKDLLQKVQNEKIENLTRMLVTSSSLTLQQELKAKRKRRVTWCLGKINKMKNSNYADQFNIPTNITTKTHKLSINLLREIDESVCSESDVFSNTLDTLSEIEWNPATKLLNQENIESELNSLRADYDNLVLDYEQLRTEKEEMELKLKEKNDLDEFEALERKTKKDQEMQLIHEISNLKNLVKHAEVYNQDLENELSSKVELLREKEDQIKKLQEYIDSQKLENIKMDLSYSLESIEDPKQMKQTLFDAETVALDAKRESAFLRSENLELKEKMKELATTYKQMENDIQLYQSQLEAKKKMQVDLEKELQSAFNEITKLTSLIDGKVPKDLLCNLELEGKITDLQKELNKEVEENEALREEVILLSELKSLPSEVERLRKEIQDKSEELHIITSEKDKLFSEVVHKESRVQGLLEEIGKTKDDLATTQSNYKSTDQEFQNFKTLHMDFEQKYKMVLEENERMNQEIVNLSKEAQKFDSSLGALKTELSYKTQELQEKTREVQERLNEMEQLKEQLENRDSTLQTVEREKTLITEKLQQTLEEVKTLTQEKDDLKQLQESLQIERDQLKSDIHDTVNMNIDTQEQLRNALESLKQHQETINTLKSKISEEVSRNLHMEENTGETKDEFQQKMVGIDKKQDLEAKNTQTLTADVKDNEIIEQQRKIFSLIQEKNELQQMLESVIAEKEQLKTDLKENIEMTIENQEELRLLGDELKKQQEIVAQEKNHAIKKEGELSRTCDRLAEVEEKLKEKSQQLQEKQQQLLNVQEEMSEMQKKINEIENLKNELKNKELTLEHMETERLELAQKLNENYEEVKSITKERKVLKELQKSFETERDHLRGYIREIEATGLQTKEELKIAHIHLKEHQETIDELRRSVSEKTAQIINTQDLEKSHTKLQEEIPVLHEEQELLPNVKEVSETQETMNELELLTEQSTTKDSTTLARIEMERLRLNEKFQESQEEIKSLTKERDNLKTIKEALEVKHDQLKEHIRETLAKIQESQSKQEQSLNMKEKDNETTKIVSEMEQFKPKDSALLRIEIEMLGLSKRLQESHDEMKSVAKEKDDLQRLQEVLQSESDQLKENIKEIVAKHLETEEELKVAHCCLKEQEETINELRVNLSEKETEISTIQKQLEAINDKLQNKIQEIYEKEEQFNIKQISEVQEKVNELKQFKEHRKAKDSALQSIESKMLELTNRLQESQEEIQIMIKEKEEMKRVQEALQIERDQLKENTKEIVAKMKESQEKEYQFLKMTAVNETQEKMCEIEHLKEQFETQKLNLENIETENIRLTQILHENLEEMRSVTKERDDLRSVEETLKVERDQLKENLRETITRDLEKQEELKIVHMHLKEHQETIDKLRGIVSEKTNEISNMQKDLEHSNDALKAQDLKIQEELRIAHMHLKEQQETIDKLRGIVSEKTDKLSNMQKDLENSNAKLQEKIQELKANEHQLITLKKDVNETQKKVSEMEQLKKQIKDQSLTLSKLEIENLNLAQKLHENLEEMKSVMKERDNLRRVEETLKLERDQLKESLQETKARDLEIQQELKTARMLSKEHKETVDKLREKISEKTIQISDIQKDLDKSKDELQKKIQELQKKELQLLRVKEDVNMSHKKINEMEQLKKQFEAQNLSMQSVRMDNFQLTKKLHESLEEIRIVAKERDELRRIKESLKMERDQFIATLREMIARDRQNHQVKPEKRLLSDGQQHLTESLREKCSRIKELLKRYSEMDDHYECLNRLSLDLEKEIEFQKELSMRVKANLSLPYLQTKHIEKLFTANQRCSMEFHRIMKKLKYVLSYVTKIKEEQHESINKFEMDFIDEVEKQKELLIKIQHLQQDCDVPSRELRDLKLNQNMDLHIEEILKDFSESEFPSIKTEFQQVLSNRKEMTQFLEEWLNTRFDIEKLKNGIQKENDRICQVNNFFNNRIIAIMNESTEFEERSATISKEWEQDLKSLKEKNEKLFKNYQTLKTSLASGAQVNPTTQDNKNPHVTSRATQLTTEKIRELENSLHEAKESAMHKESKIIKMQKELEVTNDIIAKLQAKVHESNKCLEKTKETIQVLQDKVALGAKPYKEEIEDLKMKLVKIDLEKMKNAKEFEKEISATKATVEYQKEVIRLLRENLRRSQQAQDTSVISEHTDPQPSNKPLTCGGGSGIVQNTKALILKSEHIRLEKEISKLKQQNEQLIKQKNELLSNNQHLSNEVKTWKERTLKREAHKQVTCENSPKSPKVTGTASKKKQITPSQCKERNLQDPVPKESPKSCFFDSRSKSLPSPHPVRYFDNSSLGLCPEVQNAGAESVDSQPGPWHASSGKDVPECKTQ
UniProt O60566: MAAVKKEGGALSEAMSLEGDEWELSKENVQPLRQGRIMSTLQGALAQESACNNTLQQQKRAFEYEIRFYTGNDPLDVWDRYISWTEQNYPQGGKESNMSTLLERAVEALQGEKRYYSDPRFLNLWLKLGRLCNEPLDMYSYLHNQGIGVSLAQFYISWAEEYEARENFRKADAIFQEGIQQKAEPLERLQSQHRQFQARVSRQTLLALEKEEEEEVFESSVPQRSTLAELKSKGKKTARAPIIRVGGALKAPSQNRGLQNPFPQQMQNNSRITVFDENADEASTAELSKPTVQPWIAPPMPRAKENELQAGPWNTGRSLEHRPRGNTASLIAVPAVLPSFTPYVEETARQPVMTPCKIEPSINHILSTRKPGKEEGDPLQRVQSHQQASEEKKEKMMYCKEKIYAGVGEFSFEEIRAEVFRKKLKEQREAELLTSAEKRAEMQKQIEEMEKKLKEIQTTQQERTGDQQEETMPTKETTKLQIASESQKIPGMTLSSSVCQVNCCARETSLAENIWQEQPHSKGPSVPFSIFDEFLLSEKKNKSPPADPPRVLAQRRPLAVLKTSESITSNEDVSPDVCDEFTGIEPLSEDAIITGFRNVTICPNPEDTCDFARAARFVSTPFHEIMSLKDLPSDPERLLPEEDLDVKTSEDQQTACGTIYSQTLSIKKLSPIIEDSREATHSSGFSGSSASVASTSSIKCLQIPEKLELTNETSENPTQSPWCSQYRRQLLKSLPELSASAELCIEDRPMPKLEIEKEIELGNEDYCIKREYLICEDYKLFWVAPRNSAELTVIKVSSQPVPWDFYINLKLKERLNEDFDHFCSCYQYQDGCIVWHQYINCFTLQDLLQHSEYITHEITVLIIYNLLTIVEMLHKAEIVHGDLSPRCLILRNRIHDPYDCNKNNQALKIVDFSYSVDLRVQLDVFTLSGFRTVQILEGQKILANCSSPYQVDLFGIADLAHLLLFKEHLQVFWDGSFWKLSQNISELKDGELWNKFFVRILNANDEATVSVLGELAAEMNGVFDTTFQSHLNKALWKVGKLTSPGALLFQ

binding (MycGFP-CENP-E (human) [1]): binds
binding (MycGFP-CENP-E (human) [2]): binds
Substance: BubR1 (from UniProt O60566 1-1050)

— paper PMC11014917
